Values quoted from earlier work in US20230218544A1, “TREATMENT METHODS AND FORMULATIONS” (Curtin University, priority 2020, published 2023).

Conditions: cisplatin: in adults; cited from earlier work

NS(=O)(=O)c1cc(C(=O)O)c(NCc2ccco2)cc1Cl [furosemide]
ototoxicity induced hearing loss rate: 6-7%
